# The supplement of paper PMC4604168 (melanoma cell lines)
# Some of the results follow. Many values rest on one well or one pass, so single values are uncertain.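 Cells were imaged in 1,536-well plates, and nuclei stained with an antibody against cleaved PARP were counted against all DNA-stained nuclei to give the apoptosis fraction. Screening doses were chosen to leave most cells alive, and resting and induced cleaved-PARP levels differ strongly between cell lines.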
# Legend:
# Assay in all cases: cleaved PARP positive nuclei fraction relative to DMSO control; melanoma cells; higher = more apoptosis
# Conditions in all cases: library dose: low library concentration; 72 h
# WM115 = tested on: WM115
# WM1716 = tested on: WM1716
# WM1745 = tested on: WM1745
# WM3526 = tested on: WM3526
# WM3619 = tested on: WM3619
# WM451Lu = tested on: WM451Lu
Compound,cleaved PARP positive nuclei fraction (WM115) [%],cleaved PARP positive nuclei fraction (WM1716) [%],cleaved PARP positive nuclei fraction (WM1745) [%],cleaved PARP positive nuclei fraction (WM3526) [%],cleaved PARP positive nuclei fraction (WM3619) [%],cleaved PARP positive nuclei fraction (WM451Lu) [%]
"CS(=O)(=O)c1ccc(C(=O)Nc2ccc(Cl)c(-c3ccccn3)c2)c(Cl)c1 [vismodegib] + Cn1nnc2c(C(N)=O)ncn2c1=O [temozolomide] (first compound 1 µM, partner dose 2 µM)",131,220,75.1,192,73.2,79.2
"Cn1cnc2c(F)c(Nc3ccc(Br)cc3Cl)c(C(=O)NOCCO)cc21 [selumetinib] + Cn1sc(=O)n(Cc2ccccc2)c1=O [TDZD-8] (first compound 0.015 µM, partner dose 0.4 µM)",100,13.7,94,36.1,122,54.1
"C[C@]1(O)C[C@@H](c2nc(-c3ccc4ccc(-c5ccccc5)nc4c3)c3c(N)nccn32)C1 + CO[C@@H]1[C@H](N(C)C(=O)c2ccccc2)C[C@H]2O[C@]1(C)n1c3ccccc3c3c4c(c5c6ccccc6n2c5c31)C(=O)NC4 [Midostaurin] (first compound 0.4 µM, partner dose 0.08 µM)",109,45.8,115,70.8,135,43.1
"CS(=O)(=O)c1ccc(C(=O)Nc2ccc(Cl)c(-c3ccccn3)c2)c(Cl)c1 [vismodegib] + c1cc(-c2cnn3cc(-c4ccc(OCCN5CCCCC5)cc4)cnc23)ccn1 [Dorsomorphin] (first compound 1 µM, partner dose 0.4 µM)",32.3,140,122,77.4,99.4,75.2
"COc1ccc(C2=N[C@@H](c3ccc(Cl)cc3)[C@@H](c3ccc(Cl)cc3)N2C(=O)N2CCNC(=O)C2)c(OC(C)C)c1 [Nutlin-3] + NC1(c2ccc(-c3nc4ccn5c(=O)[nH]nc5c4cc3-c3ccccc3)cc2)CCC1 [MK2206] (first compound 0.1 µM, partner dose 0.4 µM)",208,204,417,21.1,102,105
"Cn1sc(=O)n(Cc2ccccc2)c1=O + O=S(=O)(c1ccccc1)N(CC(F)(F)F)c1ccc(C(O)(C(F)(F)F)C(F)(F)F)cc1 [T0901317] (first compound 0.4 µM, partner dose 1.4 µM)",84.7,33.4,115,183,90.8,72.2
"CCCCCCCCc1ccc(CCC(N)(CO)CO)cc1 [fingolimod] + COc1ccc(Cl)c(Nc2nc3ccccc3nc2NS(=O)(=O)c2cccc(NC(=O)C(C)(C)N)c2)c1 [XL147] (first compound 2 µM, partner dose 0.8 µM)",67.9,48.2,119,155,76,42.9
"NC1(c2ccc(-c3nc4ccn5c(=O)[nH]nc5c4cc3-c3ccccc3)cc2)CCC1 + CC(=O)c1c(C)c2cnc(Nc3ccc(N4CCNCC4)cn3)nc2n(C2CCCC2)c1=O [palbociclib] (first compound 0.4 µM, partner dose 0.04 µM)",179,120,124,36.3,265,56.7
"CS(=O)(=O)c1ccc(C(=O)Nc2ccc(Cl)c(-c3ccccn3)c2)c(Cl)c1 [vismodegib] + COc1cc(Nc2ncc(F)c(Nc3ccc4c(n3)NC(=O)C(C)(C)O4)n2)cc(OC)c1OC [Tamatinib] (first compound 1 µM, partner dose 0.4 µM)",130,52.2,123,64.1,105,253
"NC1(c2ccc(-c3nc4ccn5c(=O)[nH]nc5c4cc3-c3ccccc3)cc2)CCC1 + Clc1ccc(Nc2nnc(Cc3ccncc3)c3ccccc23)cc1 [vatalanib] (first compound 0.4 µM, partner dose 2 µM)",289,77.3,111,83.1,131,113
"C[C@]1(O)C[C@@H](c2nc(-c3ccc4ccc(-c5ccccc5)nc4c3)c3c(N)nccn32)C1 + N#Cc1c(O)c2c(-c3ccc(-c4ccccc4O)cc3)csc2[nH]c1=O [A769662] (first compound 0.4 µM, partner dose 2 µM)",125,91.2,102,83.7,106,150
"Cn1cnc2c(F)c(Nc3ccc(Br)cc3Cl)c(C(=O)NOCCO)cc21 [selumetinib] + Oc1cc(-c2nc(-c3ccccc3)[nH]c2-c2ccncc2)ccc1Cl [L779450] (first compound 0.015 µM, partner dose 0.2 µM)",201,88.9,110,143,123,57.3
"C[C@]1(O)C[C@@H](c2nc(-c3ccc4ccc(-c5ccccc5)nc4c3)c3c(N)nccn32)C1 + CC(C)C[C@H](NC(=O)[C@H](Cc1ccccc1)NC(=O)c1cnccn1)B(O)O [Bortezomib] (first compound 0.4 µM, partner dose 0.001 µM)",61.6,123,172,39.3,149,34.4
"CCN(CC)CCNC(=O)c1c(C)[nH]c(/C=C2\C(=O)Nc3ccc(F)cc32)c1C [sunitinib] + Cn1cc(/C=C2\C(=O)Nc3cccnc32)c2ccccc21 [GW441756] (first compound 0.4 µM, partner dose 0.4 µM)",42.3,83.8,112,88.2,75,70.3
"C[C@]1(O)C[C@@H](c2nc(-c3ccc4ccc(-c5ccccc5)nc4c3)c3c(N)nccn32)C1 + Cc1cc([N+](=O)[O-])ccc1NS(=O)(=O)c1cc(Cl)ccc1Cl [FH535] (first compound 0.4 µM, partner dose 1 µM)",45.5,27.6,115,94.3,104,157
"COc1ccc(C2=N[C@@H](c3ccc(Cl)cc3)[C@@H](c3ccc(Cl)cc3)N2C(=O)N2CCNC(=O)C2)c(OC(C)C)c1 [Nutlin-3] + Cn1cc(/C=C2\C(=O)Nc3cccnc32)c2ccccc21 [GW441756] (first compound 0.1 µM, partner dose 0.4 µM)",250,93.4,98.1,132,89.5,71.6
"CCN(CC)CCNC(=O)c1c(C)[nH]c(/C=C2\C(=O)Nc3ccc(F)cc32)c1C [sunitinib] + Nc1nc(F)nc2c1ncn2[C@@H]1O[C@H](CO)[C@@H](O)[C@@H]1O [fludarabine] (first compound 0.4 µM, partner dose 0.2 µM)",99.2,148,102,589,90.2,59.4
"C[C@@H](N)c1ccc(C(=O)Nc2ccnc3[nH]ccc23)cc1 + C=C(c1ccc(C(=O)O)cc1)c1cc2c(cc1C)C(C)(C)CCC2(C)C [Bexarotene] (first compound 0.4 µM, partner dose 2 µM)",130,426,155,44.2,91.5,315
"NC(=O)c1ccc(N(C(N)=O)c2c(F)cccc2F)nc1-c1ccc(F)cc1F + CN(NC(=O)CC(=O)NN(C)C(=S)c1ccccc1)C(=S)c1ccccc1 [STA4783] (first compound 0.4 µM, partner dose 0.006 µM)",171,120,250,178,136,266
"CC1(C)CCC(c2ccc(Cl)cc2)=C(CN2CCN(c3ccc(C(=O)NS(=O)(=O)c4ccc(N[C@H](CCN5CCOCC5)CSc5ccccc5)c(S(=O)(=O)C(F)(F)F)c4)cc3)CC2)C1 + CS(=O)(=O)CCNCc1ccc(-c2ccc3ncnc(Nc4ccc(OCc5cccc(F)c5)c(Cl)c4)c3c2)o1 [lapatinib] (first compound 0.4 µM, partner dose 0.8 µM)",390,145,812,48.7,104,50.3
"CC1(C)CCC(c2ccc(Cl)cc2)=C(CN2CCN(c3ccc(C(=O)NS(=O)(=O)c4ccc(N[C@H](CCN5CCOCC5)CSc5ccccc5)c(S(=O)(=O)C(F)(F)F)c4)cc3)CC2)C1 + Nc1cccc2c1CN(C1CCC(=O)NC1=O)C2=O [lenalidomide] (first compound 0.4 µM, partner dose 1 µM)",123,578,667,93.5,115,95.7
"COc1ccc(C2=N[C@@H](c3ccc(Cl)cc3)[C@@H](c3ccc(Cl)cc3)N2C(=O)N2CCNC(=O)C2)c(OC(C)C)c1 [Nutlin-3] + NCC(=O)Nc1ccc(-n2nc(C(F)(F)F)cc2-c2ccc3c(ccc4ccccc43)c2)cc1 [OSU03012] (first compound 0.1 µM, partner dose 1 µM)",110,82.2,193,54.5,85.8,218
"CCCCCCCCc1ccc(CCC(N)(CO)CO)cc1 [fingolimod] + Cn1cc(/C=C2\C(=O)Nc3cccnc32)c2ccccc21 [GW441756] (first compound 2 µM, partner dose 0.4 µM)",27.1,61,120,82.3,93.9,62.3
"CC(=O)O[C@@]12CO[C@@H]1C[C@H](O)[C@@]1(C)C(=O)[C@H](O)C3=C(C)[C@@H](OC(=O)[C@H](O)[C@@H](NC(=O)OC(C)(C)C)c4ccccc4)C[C@@](O)([C@@H](OC(=O)c4ccccc4)[C@H]21)C3(C)C [Docetaxel] + COCC[n+]1c2c(n(Cc3cnccn3)c1C)C(=O)c1ccccc1C2=O [YM155] (first compound 0.0001 µM, partner dose 0.0004 µM)",403,150,189,282,128,124

# Given bar-delimited: entries from further up
Compound | cleaved PARP positive nuclei fraction (WM115) [%] | cleaved PARP positive nuclei fraction (WM1716) [%] | cleaved PARP positive nuclei fraction (WM1745) [%] | cleaved PARP positive nuclei fraction (WM3526) [%] | cleaved PARP positive nuclei fraction (WM3619) [%] | cleaved PARP positive nuclei fraction (WM451Lu) [%]
Cn1cnc2c(F)c(Nc3ccc(Br)cc3Cl)c(C(=O)NOCCO)cc21 [selumetinib] + Cn1sc(=O)n(Cc2ccccc2)c1=O [TDZD-8] (first compound 0.015 µM, partner dose 0.4 µM) | 100 | 13.7 | 94 | 36.1 | 122 | 54.1
CC1(C)CCC(c2ccc(Cl)cc2)=C(CN2CCN(c3ccc(C(=O)NS(=O)(=O)c4ccc(N[C@H](CCN5CCOCC5)CSc5ccccc5)c(S(=O)(=O)C(F)(F)F)c4)cc3)CC2)C1 + CS(=O)(=O)CCNCc1ccc(-c2ccc3ncnc(Nc4ccc(OCc5cccc(F)c5)c(Cl)c4)c3c2)o1 [lapatinib] (first compound 0.4 µM, partner dose 0.8 µM) | 390 | 145 | 812 | 48.7 | 104 | 50.3
